No constants are given. Whether binding was seen depends on the method and setting. In cells and extracts the contact can be indirect. Some binding calls cover weakened binding; strength is not graded here.
molecular target: SHD1CRU (S. cerevisiae) (UniProt P23201); test: split reporter

Amino acid sequences for entries named in this document (tags omitted). Residues count along the entry.
UniProt P23201, residues 1-124: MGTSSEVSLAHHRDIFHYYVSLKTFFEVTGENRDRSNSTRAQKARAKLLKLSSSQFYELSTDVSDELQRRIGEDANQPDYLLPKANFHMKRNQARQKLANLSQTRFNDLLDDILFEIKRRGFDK

binding | Binder
no binding | Nub-Msb3_(Δ84-88) (protein, UniProt P48566) MQNDQQRFSLQNRTVLAHPYKRLGGAFTVKSPSVPNFHDKMHSDHSSSDSALVNGSFRANDHRSVEPSCLGQASPSEHDGNLSGDEVESQRAEGEDDDDNNGDNGNEDLEEVHSDDLDLVPDDDNRQRVELEGAASATSANSNGINNTHFDRYGFKKQNNYISEAEYDKWWVEYSQYCVRRKHKWQLLLEKSGLPVTDDSPSRFPSKSERLKRYVRKGIPAEWRGNAWWHFARGQEKLNKNKGVYSQLLRKMKQIKKQNPNEKQVQDLDIIERDLNRTFPDNIHFQSSLHNKEGPPIIKSLRRVLVAFSLYNPKIGYCQSMNFLAGLLLLFLDEERAFWMLVIITSRYLPGVHNINLEGVNIDQGVLMLCVKEYIPEVWSYIKPSIDHHQKNNKTFSPSNKKVLFNMQKNEFLYRLPPITLCTASWFMSCFVGVVPIETTLRIWDCLFYEESHFLFKVSLAVLKLSEHDLSKIKPRNNSLNYSWGSNLNQRGGSMGQEDSDMEIFQVIQTFPKTLLNPNEIFEKIIFKRRFNLNRLDQDEIDRCRKFVAAQRLKFKTYGELLGNSTSEADLPINDNTDNKGIHITSDAVNEALSSEVYGFKKSLAGVHWNNSIKEKVKQMRKKKDKGD

molecular target: SHD1CRU (S. cerevisiae) (UniProt P23201); test: split reporter; remark: another data set of the same source

binding | Binder
binds | Nub-Msb3 +1A (protein, UniProt P48566 1-633) MQNDQQRFSLQNRTVLAHPYKRLGGAFTVKSPSVPNFHDKMHSDHSSSDSALVNGSFRANDHRSVEPSCLGQASPSEHDGNLSVIDAYGDEVESQRAEGEDDDDNNGDNGNEDLEEVHSDDLDLVPDDDNRQRVELEGAASATSANSNGINNTHFDRYGFKKQNNYISEAEYDKWWVEYSQYCVRRKHKWQLLLEKSGLPVTDDSPSRFPSKSERLKRYVRKGIPAEWRGNAWWHFARGQEKLNKNKGVYSQLLRKMKQIKKQNPNEKQVQDLDIIERDLNRTFPDNIHFQSSLHNKEGPPIIKSLRRVLVAFSLYNPKIGYCQSMNFLAGLLLLFLDEERAFWMLVIITSRYLPGVHNINLEGVNIDQGVLMLCVKEYIPEVWSYIKPSIDHHQKNNKTFSPSNKKVLFNMQKNEFLYRLPPITLCTASWFMSCFVGVVPIETTLRIWDCLFYEESHFLFKVSLAVLKLSEHDLSKIKPRNNSLNYSWGSNLNQRGGSMGQEDSDMEIFQVIQTFPKTLLNPNEIFEKIIFKRRFNLNRLDQDEIDRCRKFVAAQRLKFKTYGELLGNSTSEADLPINDNTDNKGIHITSDAVNEALSSEVYGFKKSLAGVHWNNSIKEKVKQMRKKKDKGD
binds | Nub-Msb3 L-4Y (protein, UniProt P48566 1-633) MQNDQQRFSLQNRTVLAHPYKRLGGAFTVKSPSVPNFHDKMHSDHSSSDSALVNGSFRANDHRSVEPSCLGQASPSEHDGNYSVIDLYGDEVESQRAEGEDDDDNNGDNGNEDLEEVHSDDLDLVPDDDNRQRVELEGAASATSANSNGINNTHFDRYGFKKQNNYISEAEYDKWWVEYSQYCVRRKHKWQLLLEKSGLPVTDDSPSRFPSKSERLKRYVRKGIPAEWRGNAWWHFARGQEKLNKNKGVYSQLLRKMKQIKKQNPNEKQVQDLDIIERDLNRTFPDNIHFQSSLHNKEGPPIIKSLRRVLVAFSLYNPKIGYCQSMNFLAGLLLLFLDEERAFWMLVIITSRYLPGVHNINLEGVNIDQGVLMLCVKEYIPEVWSYIKPSIDHHQKNNKTFSPSNKKVLFNMQKNEFLYRLPPITLCTASWFMSCFVGVVPIETTLRIWDCLFYEESHFLFKVSLAVLKLSEHDLSKIKPRNNSLNYSWGSNLNQRGGSMGQEDSDMEIFQVIQTFPKTLLNPNEIFEKIIFKRRFNLNRLDQDEIDRCRKFVAAQRLKFKTYGELLGNSTSEADLPINDNTDNKGIHITSDAVNEALSSEVYGFKKSLAGVHWNNSIKEKVKQMRKKKDKGD
binds weakly | Mkk1_(143–202), the N-terminal extension of Mkk1_(143–202)SHD1CRU (domain or fragment, UniProt P32490 143-202) ASPFSHTNTSSPYLRNDLSNSVGSDFSNLISAYEQSSSPIKSSSQPKSSSESYIDLNSVR
no binding | SSLSQSPCVSSSSSLSTPCIIDAYSNNFGLSPSSTN (peptide, UniProt P06784 100-135) [Nub-Ste7_(100-135)]
binds | GQASPSEHDGNLSVIDLYGDEVESQRAEGE (peptide, UniProt P48566 71-100) [Nub-Msb3_(71-100)]
binds | Dse3_(181-240), the N-terminal extension of Dse3_(181-240)-SHD1CRU (domain or fragment, UniProt Q08729 181-240) SLMQTQTQDCCRKNKYGKSGSEILFDEILSAYENVSTSDSTALNSEIDRIIDICASKQIA

The next lines start with the binder.

Binder | binding
Nub-Mkk1Δ171–175 (protein, UniProt P32490) MASLFRPPESAKCNPNSPRLKLPLLRNNQVDENNIYLTSNGSSTTAYSSHTPEPLTSSTSTLFSQTRLHPSDSSMTLNTMKKRPAPPSLPSLSINSQSKCKTLPELVPIADVSDGKHDLGLKQRVIAENELSGNSDLTPSSMASPFSHTNTSSPYLRNDLSNSVGSDFSNEQSSSPIKSSSQPKSSSESYIDLNSVRDVDQLDENGWKYANLKDRIETLGILGEGAGGSVSKCKLKNGSKIFALKVINTLNTDPEYQKQIFRELQFNRSFQSEYIVRYYGMFTDDENSSIYIAMEYMGGRSLDAIYKNLLERGGRISEKVLGKIAEAVLRGLSYLHEKKVIHRDIKPQNILLNENGQVKLCDFGVSGEAVNSLATTFTGTSFYMAPERIQGQPYSVTSDVWSLGLTILEVANGKFPCSSEKMAANIAPFELLMWILTFTPELKDEPESNIIWSPSFKSFIDYCLKKDSRERPSPRQMINHPWIKGQMKKNVNMEKFVRKCWKD | no binding
Nub-Mkk1 with Ser0 substituted by Asp (protein, UniProt P32490 1-508) MASLFRPPESAKCNPNSPRLKLPLLRNNQVDENNIYLTSNGSSTTAYSSHTPEPLTSSTSTLFSQTRLHPSDSSMTLNTMKKRPAPPSLPSLSINSQSKCKTLPELVPIADVSDGKHDLGLKQRVIAENELSGNSDLTPSSMASPFSHTNTSSPYLRNDLSNSVGSDFSNLIDAYEQSSSPIKSSSQPKSSSESYIDLNSVRDVDQLDENGWKYANLKDRIETLGILGEGAGGSVSKCKLKNGSKIFALKVINTLNTDPEYQKQIFRELQFNRSFQSEYIVRYYGMFTDDENSSIYIAMEYMGGRSLDAIYKNLLERGGRISEKVLGKIAEAVLRGLSYLHEKKVIHRDIKPQNILLNENGQVKLCDFGVSGEAVNSLATTFTGTSFYMAPERIQGQPYSVTSDVWSLGLTILEVANGKFPCSSEKMAANIAPFELLMWILTFTPELKDEPESNIIWSPSFKSFIDYCLKKDSRERPSPRQMINHPWIKGQMKKNVNMEKFVRKCWKD | binds
Nub-Msb3 D0A (protein, UniProt P48566 1-633) MQNDQQRFSLQNRTVLAHPYKRLGGAFTVKSPSVPNFHDKMHSDHSSSDSALVNGSFRANDHRSVEPSCLGQASPSEHDGNLSVIALYGDEVESQRAEGEDDDDNNGDNGNEDLEEVHSDDLDLVPDDDNRQRVELEGAASATSANSNGINNTHFDRYGFKKQNNYISEAEYDKWWVEYSQYCVRRKHKWQLLLEKSGLPVTDDSPSRFPSKSERLKRYVRKGIPAEWRGNAWWHFARGQEKLNKNKGVYSQLLRKMKQIKKQNPNEKQVQDLDIIERDLNRTFPDNIHFQSSLHNKEGPPIIKSLRRVLVAFSLYNPKIGYCQSMNFLAGLLLLFLDEERAFWMLVIITSRYLPGVHNINLEGVNIDQGVLMLCVKEYIPEVWSYIKPSIDHHQKNNKTFSPSNKKVLFNMQKNEFLYRLPPITLCTASWFMSCFVGVVPIETTLRIWDCLFYEESHFLFKVSLAVLKLSEHDLSKIKPRNNSLNYSWGSNLNQRGGSMGQEDSDMEIFQVIQTFPKTLLNPNEIFEKIIFKRRFNLNRLDQDEIDRCRKFVAAQRLKFKTYGELLGNSTSEADLPINDNTDNKGIHITSDAVNEALSSEVYGFKKSLAGVHWNNSIKEKVKQMRKKKDKGD | binds
Nub-Msb3 Y+2A (protein, UniProt P48566 1-633) MQNDQQRFSLQNRTVLAHPYKRLGGAFTVKSPSVPNFHDKMHSDHSSSDSALVNGSFRANDHRSVEPSCLGQASPSEHDGNLSVIDLAGDEVESQRAEGEDDDDNNGDNGNEDLEEVHSDDLDLVPDDDNRQRVELEGAASATSANSNGINNTHFDRYGFKKQNNYISEAEYDKWWVEYSQYCVRRKHKWQLLLEKSGLPVTDDSPSRFPSKSERLKRYVRKGIPAEWRGNAWWHFARGQEKLNKNKGVYSQLLRKMKQIKKQNPNEKQVQDLDIIERDLNRTFPDNIHFQSSLHNKEGPPIIKSLRRVLVAFSLYNPKIGYCQSMNFLAGLLLLFLDEERAFWMLVIITSRYLPGVHNINLEGVNIDQGVLMLCVKEYIPEVWSYIKPSIDHHQKNNKTFSPSNKKVLFNMQKNEFLYRLPPITLCTASWFMSCFVGVVPIETTLRIWDCLFYEESHFLFKVSLAVLKLSEHDLSKIKPRNNSLNYSWGSNLNQRGGSMGQEDSDMEIFQVIQTFPKTLLNPNEIFEKIIFKRRFNLNRLDQDEIDRCRKFVAAQRLKFKTYGELLGNSTSEADLPINDNTDNKGIHITSDAVNEALSSEVYGFKKSLAGVHWNNSIKEKVKQMRKKKDKGD | no binding
Nub-Msb4 D0A (protein, UniProt Q12317 1-492) MIMSSTMSTEAALVPNESVFDTVSSFNEDDANYSVLALYDDDDEGDDSSTVERKEILTTRELEKAKAFTSLIMADPENFDRYGFSKKGYFISQEEYDKWWTEYNRYTERRKKKWENFLLKNKIELHNDNPLVYPARTDELSKFVRKGIPAEWRGNAWWYFAGGQRQLDANVGVYDRLKSDCREGAVSGKDMEAIERDLYRTFPDNIHFHKESFQNGEPAIIRSLRRVLMAFSVYDKTIGYCQSMNFLVGLLLLFMEEEKAFWMLVIITGKYLPGVYESDLEGANVDQGVLVLCIKEYLPEIWSHIESSYMNGNGSTDQISGPASGEEYLCRLPTLTLCTASWFMSCFVGVVPIETTLRIWDCLFYEESHFLFKVALGILKLSESEFLESKSQKLFRQYSSYTFGGSNDSDSTFKRLKNKIKTQEEADMEILQVIQNFPKRLLNPNDIFEKVLMKKKVALNGITQEKIDRGREYVAMARNRQRASSRPKERRK | binds
Nub-Msb4 Y+2A (protein, UniProt Q12317 1-492) MIMSSTMSTEAALVPNESVFDTVSSFNEDDANYSVLDLADDDDEGDDSSTVERKEILTTRELEKAKAFTSLIMADPENFDRYGFSKKGYFISQEEYDKWWTEYNRYTERRKKKWENFLLKNKIELHNDNPLVYPARTDELSKFVRKGIPAEWRGNAWWYFAGGQRQLDANVGVYDRLKSDCREGAVSGKDMEAIERDLYRTFPDNIHFHKESFQNGEPAIIRSLRRVLMAFSVYDKTIGYCQSMNFLVGLLLLFMEEEKAFWMLVIITGKYLPGVYESDLEGANVDQGVLVLCIKEYLPEIWSHIESSYMNGNGSTDQISGPASGEEYLCRLPTLTLCTASWFMSCFVGVVPIETTLRIWDCLFYEESHFLFKVALGILKLSESEFLESKSQKLFRQYSSYTFGGSNDSDSTFKRLKNKIKTQEEADMEILQVIQNFPKRLLNPNDIFEKVLMKKKVALNGITQEKIDRGREYVAMARNRQRASSRPKERRK | no binding
DTVSSFNEDDANYSVLDLYDDDDEGDDSST (peptide, UniProt Q12317 21-50) [Nub-Msb4_(21-50)] | binds

From doi:10.1101/2025.06.12.659263
